Measured values from doi:10.1101/2023.03.06.531343.
These are yes or no findings as the source states them, for the method shown. In cells and extracts the contact can be indirect. Some results given as binding are weak or reduced against the parent protein; the word gives no strength. Where a sequence is shown, tags or fusion partners need not be part of it.

Protein sequences, listed by entry. Tags and fused reporters are not part of them. Residues count along the entry.
UniProt P0A3W8: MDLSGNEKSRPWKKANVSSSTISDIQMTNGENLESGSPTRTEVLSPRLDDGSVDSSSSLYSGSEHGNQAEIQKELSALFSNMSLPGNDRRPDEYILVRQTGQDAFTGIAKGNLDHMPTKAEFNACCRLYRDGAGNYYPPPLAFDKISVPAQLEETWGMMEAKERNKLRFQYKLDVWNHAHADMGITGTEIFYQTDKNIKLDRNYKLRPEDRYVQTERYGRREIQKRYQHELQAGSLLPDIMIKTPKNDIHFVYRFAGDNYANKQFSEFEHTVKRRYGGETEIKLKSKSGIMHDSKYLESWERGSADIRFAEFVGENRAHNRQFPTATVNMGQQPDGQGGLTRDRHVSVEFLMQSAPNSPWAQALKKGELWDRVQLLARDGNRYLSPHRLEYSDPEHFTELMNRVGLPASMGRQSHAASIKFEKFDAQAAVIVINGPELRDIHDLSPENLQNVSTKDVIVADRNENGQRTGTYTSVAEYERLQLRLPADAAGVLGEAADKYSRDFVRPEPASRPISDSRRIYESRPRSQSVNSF
UniProt F4K5J1, residues 808-1531: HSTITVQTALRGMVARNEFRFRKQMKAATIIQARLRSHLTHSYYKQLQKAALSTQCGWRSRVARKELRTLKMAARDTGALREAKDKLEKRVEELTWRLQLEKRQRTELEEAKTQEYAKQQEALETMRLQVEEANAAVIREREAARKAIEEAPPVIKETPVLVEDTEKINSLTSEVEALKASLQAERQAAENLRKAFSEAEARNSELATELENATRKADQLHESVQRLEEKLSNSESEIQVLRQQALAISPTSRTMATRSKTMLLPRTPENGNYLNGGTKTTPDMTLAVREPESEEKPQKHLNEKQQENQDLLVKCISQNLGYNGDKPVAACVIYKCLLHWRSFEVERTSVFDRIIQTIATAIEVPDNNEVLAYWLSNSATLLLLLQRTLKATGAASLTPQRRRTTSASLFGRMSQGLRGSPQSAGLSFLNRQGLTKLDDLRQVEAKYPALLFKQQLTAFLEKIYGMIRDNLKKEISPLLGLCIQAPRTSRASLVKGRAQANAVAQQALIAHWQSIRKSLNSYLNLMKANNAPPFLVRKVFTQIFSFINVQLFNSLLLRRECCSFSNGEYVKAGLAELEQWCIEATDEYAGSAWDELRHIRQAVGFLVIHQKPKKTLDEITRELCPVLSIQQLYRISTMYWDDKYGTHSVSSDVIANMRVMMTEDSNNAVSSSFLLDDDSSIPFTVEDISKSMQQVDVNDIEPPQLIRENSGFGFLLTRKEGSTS

Experiments:
[1] = biological target: VirE2-cEYFP (BiFC, transgenic Arabidopsis roots) (Agrobacterium tumefaciens) (UniProt P0A3W8); assay: split reporter
[2] = biological target: VirE2-Venus (recombinant, E. coli) (Agrobacterium tumefaciens) (UniProt P0A3W8); assay: pull-down
[3] = biological target: VirE2-Venus (expressed in transgenic Arabidopsis roots) (Agrobacterium tumefaciens) (UniProt P0A3W8); assay: co-IP

Molecule	binding [1]	binding [2]	also measured
nVenus-tagged full-length myosin VIII-A (BiFC, transgenic Arabidopsis roots) (from UniProt F4I507 1-1153)	binds		
myc-tagged myosin XI-K cargo binding domain (E. coli) (from UniProt F4K5J1 808-1531) (domain or fragment)		binds	
nVenus-tagged full-length myosin VIII-2 (BiFC, transgenic Arabidopsis roots) (from UniProt F4K0A6 1-1220)	binds		
nVenus-tagged full-length myosin VIII-B (BiFC, transgenic Arabidopsis roots) (from UniProt F4JIU4 1-1134)	binds		
myc-tagged myosin VIII-1 cargo binding domain (E. coli) (from UniProt Q9LHE9 953-1166) (domain or fragment)		no binding	
nVenus-tagged full-length myosin VIII-1 (BiFC, transgenic Arabidopsis roots) (protein, UniProt Q9LHE9 1-1166) MSQKVTPFMQSLKSLPADYRFDGSPVSDRLENSSGASVRLTNSNVPRKGGLRNGVSRTDTAAGDSEDSPYSGHGVFVEEQSLTDDVDSGAATMPLPQSDERRWSDTSAYARKKILQSWIQLPNGNWELGKILSTSGEESVISLPEGKVIKVISETLVPANPDILDGVDDLMQLSYLNEPSVLYNLNYRYNQDMIYTKAGPVLVAVNPFKEVPLYGNRYIEAYRKKSNESPHVYAIADTAIREMIRDEVNQSIIISGESGAGKTETAKIAMQYLAALGGGSGIEYEILKTNPILEAFGNAKTLRNDNSSRFGKLIEIHFSESGKISGAQIQTFLLEKSRVVQCAEGERSYHIFYQLCAGASPALREKLNLTSAHEYKYLGQSNCYSINGVDDAERFHTVKEALDIVHVSKEDQESVFAMLAAVLWLGNVSFTVIDNENHVEPVADESLSTVAKLIGCNINELTLTLSKRNMRVRNDTIVQKLTLPQAIDARDALAKSIYSCLFDWLVEQINKSLAVGKRRTGRSISILDIYGFESFDKNSFEQFCINYANERLQQHFNRHLFKLEQEEYIQDGIDWTRVDFEDNQNCLSLFEKKPLGLLSLLDEESTFPNGTDLTLANKLKQHLQSNSCFRGDKGKLFTVVHYAGEVTYETTGFLEKNRDLLHSDSIQLLSSCSCLLPQAFASSMLIQSEKPVVGPLYKAGGADSQRLSVATKFKSQLFQLMQRLGNTTPHFIRCIKPNNIQSPGVYEQGLVLQQLRCCGVLEVVRISRSGFPTRMSHQKFSRRYGFLLVENIADRDPLSVSVAILHQFNILPEMYQVGYTKLFFRTGQIGVLEDTRNRTLHGILRVQSSFRGYQARCLLKELKRGISILQSFVRGEKIRKEFAELRRRHKAAATIQSQVKSKIARIQYKGIADASVVIQSAIRGWLVRRCSGDIGWLKSGGAKTNELGEVLVKASVLSELQRRVLKAEAALREKEEENDILQQRLQQYENRWSEYETKMKSMEEIWQKQMRSLQSSLSIAKKSLAVEDSARNSDASVNASDATDWDSSSNQFRSQTSNGVGSRLQPMSAGLSVIGRLAEEFEQRAQVFGDDAKFLVEVKSGQVEANLDPDRELRRLKQMFETWKKDYGGRLRETKLILSKLGSEESSGSMEKVKRKWWGRRNSTRY	no binding		
myc-tagged myosin VIII-B cargo binding domain (E. coli) (domain or fragment, UniProt F4JIU4 954-1134) ADLQSRVLKVEAAIMQKEDENTALQEELQRFEERWLENETRMKSMEDTWQKHMSSMQMSLAAACKVLAPDKTASHGTDSEDTMSFGTPTKELKGSLSDVNNLSTEFDQRSVIIHEDPKSLVEVKSDSISNRKQHAEELRRLKSRFEKWKKDYKTRLRETKARVRLNGDEGRHRNWWCKKSY		binds	
myc-tagged VIP1 (transgenic Arabidopsis roots) (protein, UniProt Q9MA75 1-341) MEGGGRGPNQTILSEIEHMPEAPRQRISHHRRARSETFFSGESIDDLLLFDPSDIDFSSLDFLNAPPPPQQSQQQPQASPMSVDSEETSSNGVVPPNSLPPKPEARFGRHVRSFSVDSDFFDDLGVTEEKFIATSSGEKKKGNHHHSRSNSMDGEMSSASFNIESILASVSGKDSGKKNMGMGGDRLAELALLDPKRAKRILANRQSAARSKERKIRYTGELERKVQTLQNEATTLSAQVTMLQRGTSELNTENKHLKMRLQALEQQAELRDALNEALRDELNRLKVVAGEIPQGNGNSYNRAQFSSQQSAMNQFGNKTNQQMSTNGQPSLPSYMDFTKRG			binding [3]: binds
myc-tagged VIP1 (E. coli) (protein, UniProt Q9MA75 1-341) MEGGGRGPNQTILSEIEHMPEAPRQRISHHRRARSETFFSGESIDDLLLFDPSDIDFSSLDFLNAPPPPQQSQQQPQASPMSVDSEETSSNGVVPPNSLPPKPEARFGRHVRSFSVDSDFFDDLGVTEEKFIATSSGEKKKGNHHHSRSNSMDGEMSSASFNIESILASVSGKDSGKKNMGMGGDRLAELALLDPKRAKRILANRQSAARSKERKIRYTGELERKVQTLQNEATTLSAQVTMLQRGTSELNTENKHLKMRLQALEQQAELRDALNEALRDELNRLKVVAGEIPQGNGNSYNRAQFSSQQSAMNQFGNKTNQQMSTNGQPSLPSYMDFTKRG		binds	
myc-tagged myosin VIII-A cargo binding domain (E. coli) (domain or fragment, UniProt F4I507 948-1153) YLSDLQRRVLRTEAALREKEEENDILRQRVQQYDNRWSEYETKMKSMEEIWQKQMKSLQSSLSIAKKSLEVEDSARNSDASVNASDATDLDSGGSHYQMGHGRSRSVGVGLSVISRLAEEFGQRAQVFGDDRKFLMEVKSGQVEANLNPDRELRRLKQMFETWKKDYGGRLRETKLILSKLGSEETGGSAEKVKMNWWGRLRSTRY		binds	
myc-tagged myosin VIII-2 cargo binding domain (E. coli) (domain or fragment, UniProt F4K0A6 1003-1220) SMSDLQKRILKSEAALSQKEEENTALREQLRQFEERWSEYDIKMKSMEETWQKQMSSLQMSLAAARKSLAAESITGQAGGRQDTSISPFGYDSEDTMSTGTPGVRTPTNKFTNGNTPELRIRELNGSLNAVNHLAREFDQRRLNFDEDARAIVEVKLGPQATPNGQQQQHPEDEFRRLKLRFETWKKDYKARLRDTKARLHRVDGDKGRHRKWWGKRG		binds	
